In paper PMC7028943:
These are yes or no findings as the source states them, for the method shown. In cells and extracts the contact can be indirect. Some entries that bind do so weakly or less than the wild type.

Chains of the proteins cited; added tags and fusions are not shown.
UniProt Q12824: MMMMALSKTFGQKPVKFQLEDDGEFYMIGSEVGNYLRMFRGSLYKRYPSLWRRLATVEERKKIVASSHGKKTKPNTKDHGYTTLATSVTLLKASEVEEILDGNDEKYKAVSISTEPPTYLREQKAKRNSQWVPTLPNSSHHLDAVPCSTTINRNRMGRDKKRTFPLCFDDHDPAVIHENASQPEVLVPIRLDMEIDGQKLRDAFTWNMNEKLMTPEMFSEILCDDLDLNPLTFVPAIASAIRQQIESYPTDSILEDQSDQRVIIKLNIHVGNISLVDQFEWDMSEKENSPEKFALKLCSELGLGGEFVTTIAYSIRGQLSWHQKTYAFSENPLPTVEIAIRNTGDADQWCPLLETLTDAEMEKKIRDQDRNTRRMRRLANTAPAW
UniProt Q92922: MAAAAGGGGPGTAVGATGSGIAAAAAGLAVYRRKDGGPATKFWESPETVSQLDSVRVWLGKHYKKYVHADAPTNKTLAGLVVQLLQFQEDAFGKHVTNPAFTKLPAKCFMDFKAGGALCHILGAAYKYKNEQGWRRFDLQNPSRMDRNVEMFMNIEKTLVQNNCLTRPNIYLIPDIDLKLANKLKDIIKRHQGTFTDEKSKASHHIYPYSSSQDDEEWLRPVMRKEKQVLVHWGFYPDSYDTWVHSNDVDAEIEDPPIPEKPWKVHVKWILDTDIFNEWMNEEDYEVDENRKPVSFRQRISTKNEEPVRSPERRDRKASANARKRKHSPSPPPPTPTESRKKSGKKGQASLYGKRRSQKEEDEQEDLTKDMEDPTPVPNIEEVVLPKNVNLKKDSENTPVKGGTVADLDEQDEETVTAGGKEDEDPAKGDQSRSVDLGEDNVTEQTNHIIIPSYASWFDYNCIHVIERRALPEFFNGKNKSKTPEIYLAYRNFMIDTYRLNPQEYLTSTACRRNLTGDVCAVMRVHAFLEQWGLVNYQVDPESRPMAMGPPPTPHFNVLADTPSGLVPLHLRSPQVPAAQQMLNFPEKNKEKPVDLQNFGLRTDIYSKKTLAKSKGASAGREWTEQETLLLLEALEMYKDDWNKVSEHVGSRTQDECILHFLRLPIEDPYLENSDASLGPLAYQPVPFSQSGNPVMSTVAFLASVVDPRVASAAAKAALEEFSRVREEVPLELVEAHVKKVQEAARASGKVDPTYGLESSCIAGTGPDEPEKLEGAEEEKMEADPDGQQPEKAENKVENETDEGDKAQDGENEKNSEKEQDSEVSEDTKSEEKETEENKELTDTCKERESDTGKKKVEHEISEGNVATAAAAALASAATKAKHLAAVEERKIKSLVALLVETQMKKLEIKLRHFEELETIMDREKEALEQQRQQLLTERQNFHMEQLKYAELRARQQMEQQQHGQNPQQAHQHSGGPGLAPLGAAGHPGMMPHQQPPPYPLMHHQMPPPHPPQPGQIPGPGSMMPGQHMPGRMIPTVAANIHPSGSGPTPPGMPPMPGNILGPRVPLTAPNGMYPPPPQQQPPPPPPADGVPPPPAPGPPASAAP

Target: SMARCB1 (human (endogenous in BJ fibroblasts)) (UniProt Q12824)
Assay: co-IP; native immunoprecipitation of endogenous SMARCB1 from nuclear extracts of proliferating (-4OHT) and senescent (+4OHT) BJ fibroblasts; antibody overnight, Dynabeads Protein A or G; protein fraction of the beads analysed by western blot

With SMARCC1 (from UniProt Q92922 1-1105) the binding was “binds”.
